We go through five substances from article PMC9931111.

No constants are given. Whether binding was seen depends on the method and setting. Binding calls can cover weak binding; strength is not graded here. For some of these results: Tags and fused reporters may be left off the sequences shown. For some of these results: Binding seen in cells or lysates may run through a third protein.

Experiment [1] deals with T1, CERBERUS-mCherry (Lotus japonicus) (UniProt C6L7U1).
T1 sequence: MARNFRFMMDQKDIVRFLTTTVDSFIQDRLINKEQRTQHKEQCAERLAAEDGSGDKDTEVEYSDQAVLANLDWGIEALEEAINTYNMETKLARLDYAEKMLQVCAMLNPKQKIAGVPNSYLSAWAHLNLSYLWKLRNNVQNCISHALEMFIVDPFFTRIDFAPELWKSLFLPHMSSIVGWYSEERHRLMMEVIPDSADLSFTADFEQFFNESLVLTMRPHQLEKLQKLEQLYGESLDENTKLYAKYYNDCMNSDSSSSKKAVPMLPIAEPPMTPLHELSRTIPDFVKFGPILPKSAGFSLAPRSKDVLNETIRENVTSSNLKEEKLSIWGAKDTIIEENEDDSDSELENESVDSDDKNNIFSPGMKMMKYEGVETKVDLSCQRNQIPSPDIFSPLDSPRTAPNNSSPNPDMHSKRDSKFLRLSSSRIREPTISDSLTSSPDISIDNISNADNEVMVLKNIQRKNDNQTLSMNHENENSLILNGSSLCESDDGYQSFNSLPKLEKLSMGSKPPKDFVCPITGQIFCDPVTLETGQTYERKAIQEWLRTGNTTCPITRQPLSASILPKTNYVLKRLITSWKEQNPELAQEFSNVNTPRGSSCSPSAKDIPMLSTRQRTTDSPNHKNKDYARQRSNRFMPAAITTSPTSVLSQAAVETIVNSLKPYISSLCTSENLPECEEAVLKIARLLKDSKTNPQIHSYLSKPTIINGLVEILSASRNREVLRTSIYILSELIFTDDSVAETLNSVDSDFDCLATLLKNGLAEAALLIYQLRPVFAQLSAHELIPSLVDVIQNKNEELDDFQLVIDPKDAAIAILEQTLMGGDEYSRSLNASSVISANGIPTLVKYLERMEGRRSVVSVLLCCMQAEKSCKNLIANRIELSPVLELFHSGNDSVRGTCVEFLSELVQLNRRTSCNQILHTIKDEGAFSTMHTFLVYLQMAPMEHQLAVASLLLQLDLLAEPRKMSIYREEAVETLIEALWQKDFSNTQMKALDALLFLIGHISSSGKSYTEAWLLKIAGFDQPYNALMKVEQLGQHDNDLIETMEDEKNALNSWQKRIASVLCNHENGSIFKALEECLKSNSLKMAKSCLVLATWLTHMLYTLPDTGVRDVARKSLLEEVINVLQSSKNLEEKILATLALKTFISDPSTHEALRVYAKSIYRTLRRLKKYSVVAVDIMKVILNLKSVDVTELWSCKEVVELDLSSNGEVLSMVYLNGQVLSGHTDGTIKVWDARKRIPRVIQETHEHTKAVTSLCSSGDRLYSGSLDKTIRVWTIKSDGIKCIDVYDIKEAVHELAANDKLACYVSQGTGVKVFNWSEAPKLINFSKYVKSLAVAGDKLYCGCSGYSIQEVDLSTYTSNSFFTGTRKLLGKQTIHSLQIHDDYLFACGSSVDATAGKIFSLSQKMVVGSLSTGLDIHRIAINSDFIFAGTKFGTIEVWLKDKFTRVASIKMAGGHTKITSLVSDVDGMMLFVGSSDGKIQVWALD
Description: co-IP; GFP-RPG and CERBERUS-mCherry co-expressed in N. benthamiana leaves, harvested 60 h after agroinfiltration; lysate (50 mM Tris-MES pH 8.0, 0.5 M sucrose, 1 mM MgCl2, 10 mM EDTA, 5 mM DTT, 0.2% NP-40) incubated 1.5 h at 4°C with Anti-RFP Affinity beads; immunoblot with anti-mCherry and …. A general note: Immunoblotting shows a protein as a band on a membrane.

Experiment [2] deals with T2, CERBERUS-LUCn (Lotus japonicus) (UniProt C6L7U1).
T2 sequence: T1 sequence
Kind of experiment: split reporter; split-luciferase complementation imaging in N. benthamiana leaves, agroinfiltration with p19, imaged two days later after spraying 1 mM luciferin.

Experiment [3] deals with T3, full length CERBERUS, yeast two-hybrid fusion (Lotus japonicus) (UniProt C6L7U1).
T3 sequence: T1 sequence
Description: two-hybrid; GAL4-based yeast two-hybrid in strain AH109; growth on SD/-LWH after gradient dilution, three days.

Experiment [4] concerns the target T4, nVenus-CERBERUS (Lotus japonicus) (UniProt C6L7U1).
T4 sequence: T1 sequence
Kind of experiment: split reporter; BiFC with split Venus in N. benthamiana leaves, agroinfiltration with p19, confocal images two to three days later.

The target in experiment [5] is T4, nVenus-CERBERUS (Lotus japonicus). Kind of experiment: split reporter; BiFC with split Venus in M. truncatula sunn-1 hairy roots, after inoculation with S. meliloti 1021/mCherry.
Experiment [6] shares this target. Kind of experiment: split reporter; BiFC with split Venus in L. japonicus Gifu hairy roots (root hairs), before and after rhizobial inoculation.

As to GFP-RPG (Lotus japonicus), the binding entry in experiment [1] is “binds”.

On to LUCc-RPG (Lotus japonicus), for which the binding result in experiment [2] is given as “binds”. Take “RPG lacking the NT-C2 domain (CC), yeast two-hybrid fusion (Lotus japonicus) (domain or fragment)”: in experiment [3], the binding entry is reported as “binds”. With cVenus-RPG (Lotus japonicus), the binding result in experiment [4], in experiment [5] and in experiment [6] was “binds” throughout. With “full-length RPG (RPG-FL), yeast two-hybrid fusion (Lotus japonicus)”, the binding result in experiment [3] was “binds”.
